Reference: PMC10501387
No constants are given. Whether binding was seen depends on the method and setting. Binding seen in cells or lysates may run through a third protein. Where a sequence is shown, tags or fusion partners need not be part of it.

Chains of the proteins cited; added tags and fusions are not shown. Lines headed by an entry give the natural chain unless they say otherwise; changes in a name come on top.
UniProt P15116: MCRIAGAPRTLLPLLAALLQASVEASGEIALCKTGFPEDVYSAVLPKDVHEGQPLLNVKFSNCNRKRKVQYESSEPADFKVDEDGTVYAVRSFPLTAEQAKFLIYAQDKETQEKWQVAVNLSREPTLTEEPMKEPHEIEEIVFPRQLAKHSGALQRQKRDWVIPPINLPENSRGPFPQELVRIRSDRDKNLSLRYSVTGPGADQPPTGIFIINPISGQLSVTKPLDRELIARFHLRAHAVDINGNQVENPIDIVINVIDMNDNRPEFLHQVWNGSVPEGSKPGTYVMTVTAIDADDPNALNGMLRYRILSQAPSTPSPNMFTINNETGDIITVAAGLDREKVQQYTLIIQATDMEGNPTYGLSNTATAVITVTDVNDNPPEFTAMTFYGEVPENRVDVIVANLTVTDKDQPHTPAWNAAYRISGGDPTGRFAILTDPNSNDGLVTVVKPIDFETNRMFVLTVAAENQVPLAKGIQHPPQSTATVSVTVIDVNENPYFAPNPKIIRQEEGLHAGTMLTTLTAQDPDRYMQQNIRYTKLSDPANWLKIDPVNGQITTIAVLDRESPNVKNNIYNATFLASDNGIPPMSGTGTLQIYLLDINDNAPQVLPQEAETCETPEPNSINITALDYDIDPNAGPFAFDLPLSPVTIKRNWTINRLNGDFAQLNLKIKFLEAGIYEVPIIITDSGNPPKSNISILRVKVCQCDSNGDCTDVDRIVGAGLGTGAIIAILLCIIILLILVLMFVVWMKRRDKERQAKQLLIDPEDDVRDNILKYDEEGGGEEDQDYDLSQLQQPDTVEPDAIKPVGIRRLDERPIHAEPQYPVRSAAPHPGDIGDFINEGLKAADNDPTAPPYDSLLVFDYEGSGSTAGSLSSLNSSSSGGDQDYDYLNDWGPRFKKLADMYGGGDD

Biological target: T1, human δ-catenin with a C-terminus HA tag (δ-catenin-HA), wild type (human) (UniProt Q9UQB3)
T1 sequence: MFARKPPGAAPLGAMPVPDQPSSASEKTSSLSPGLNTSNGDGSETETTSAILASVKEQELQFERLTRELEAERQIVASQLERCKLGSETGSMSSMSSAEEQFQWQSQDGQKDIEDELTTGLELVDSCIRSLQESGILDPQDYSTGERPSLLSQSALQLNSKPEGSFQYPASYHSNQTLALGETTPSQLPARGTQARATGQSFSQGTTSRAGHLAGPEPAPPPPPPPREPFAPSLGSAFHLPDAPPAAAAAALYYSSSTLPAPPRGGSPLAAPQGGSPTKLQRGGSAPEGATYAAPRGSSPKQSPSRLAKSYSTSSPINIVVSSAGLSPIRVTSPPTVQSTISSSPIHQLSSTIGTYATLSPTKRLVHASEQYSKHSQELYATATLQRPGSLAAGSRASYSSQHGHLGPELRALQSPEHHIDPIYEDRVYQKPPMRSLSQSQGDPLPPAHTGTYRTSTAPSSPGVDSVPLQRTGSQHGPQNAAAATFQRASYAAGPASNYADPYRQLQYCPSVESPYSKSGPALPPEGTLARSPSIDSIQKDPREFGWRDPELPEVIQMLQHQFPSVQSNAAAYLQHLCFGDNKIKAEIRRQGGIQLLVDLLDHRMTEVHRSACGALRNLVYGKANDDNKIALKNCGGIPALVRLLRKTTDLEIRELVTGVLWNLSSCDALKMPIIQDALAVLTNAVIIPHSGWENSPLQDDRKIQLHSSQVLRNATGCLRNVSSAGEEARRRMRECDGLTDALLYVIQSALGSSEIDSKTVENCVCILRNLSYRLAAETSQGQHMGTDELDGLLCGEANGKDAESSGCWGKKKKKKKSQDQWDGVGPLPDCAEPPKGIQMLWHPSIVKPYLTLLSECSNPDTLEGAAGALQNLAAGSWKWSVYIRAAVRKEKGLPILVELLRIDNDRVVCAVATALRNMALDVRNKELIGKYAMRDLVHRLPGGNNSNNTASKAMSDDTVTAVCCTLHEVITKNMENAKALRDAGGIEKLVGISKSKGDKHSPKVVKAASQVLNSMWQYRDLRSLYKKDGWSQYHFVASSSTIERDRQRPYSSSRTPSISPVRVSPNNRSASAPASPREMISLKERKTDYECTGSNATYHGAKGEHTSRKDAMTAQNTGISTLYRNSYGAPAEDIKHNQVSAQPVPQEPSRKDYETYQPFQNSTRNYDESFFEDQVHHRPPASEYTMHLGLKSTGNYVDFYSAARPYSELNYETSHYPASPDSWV
Assay: co-IP; HEK293T cells co-transfected with δ-catenin-HA and GFP-tagged N-cadherin; lysate (25 mM Hepes, 150 mM KCl, 1.5 mM MgCl2, 10% glycerol, 0.5% NP-40) incubated with anti-HA magnetic beads 2 h at 4°C; blot with anti-GFP and anti-HA

binding: no binding
Substance: N-cadherinΔJMD-GFP (from UniProt P15116)
